Measured values taken from the supplement of paper PMC6411743.
± gives the standard deviation of the averaged measurements. The entries are a selection whose mix differs from that of the whole data set.

Amino acid sequences for entries named in this document (tags omitted). A change or cut given only in a name is not applied to a line headed by its entry.
UniProt Q2KHR2: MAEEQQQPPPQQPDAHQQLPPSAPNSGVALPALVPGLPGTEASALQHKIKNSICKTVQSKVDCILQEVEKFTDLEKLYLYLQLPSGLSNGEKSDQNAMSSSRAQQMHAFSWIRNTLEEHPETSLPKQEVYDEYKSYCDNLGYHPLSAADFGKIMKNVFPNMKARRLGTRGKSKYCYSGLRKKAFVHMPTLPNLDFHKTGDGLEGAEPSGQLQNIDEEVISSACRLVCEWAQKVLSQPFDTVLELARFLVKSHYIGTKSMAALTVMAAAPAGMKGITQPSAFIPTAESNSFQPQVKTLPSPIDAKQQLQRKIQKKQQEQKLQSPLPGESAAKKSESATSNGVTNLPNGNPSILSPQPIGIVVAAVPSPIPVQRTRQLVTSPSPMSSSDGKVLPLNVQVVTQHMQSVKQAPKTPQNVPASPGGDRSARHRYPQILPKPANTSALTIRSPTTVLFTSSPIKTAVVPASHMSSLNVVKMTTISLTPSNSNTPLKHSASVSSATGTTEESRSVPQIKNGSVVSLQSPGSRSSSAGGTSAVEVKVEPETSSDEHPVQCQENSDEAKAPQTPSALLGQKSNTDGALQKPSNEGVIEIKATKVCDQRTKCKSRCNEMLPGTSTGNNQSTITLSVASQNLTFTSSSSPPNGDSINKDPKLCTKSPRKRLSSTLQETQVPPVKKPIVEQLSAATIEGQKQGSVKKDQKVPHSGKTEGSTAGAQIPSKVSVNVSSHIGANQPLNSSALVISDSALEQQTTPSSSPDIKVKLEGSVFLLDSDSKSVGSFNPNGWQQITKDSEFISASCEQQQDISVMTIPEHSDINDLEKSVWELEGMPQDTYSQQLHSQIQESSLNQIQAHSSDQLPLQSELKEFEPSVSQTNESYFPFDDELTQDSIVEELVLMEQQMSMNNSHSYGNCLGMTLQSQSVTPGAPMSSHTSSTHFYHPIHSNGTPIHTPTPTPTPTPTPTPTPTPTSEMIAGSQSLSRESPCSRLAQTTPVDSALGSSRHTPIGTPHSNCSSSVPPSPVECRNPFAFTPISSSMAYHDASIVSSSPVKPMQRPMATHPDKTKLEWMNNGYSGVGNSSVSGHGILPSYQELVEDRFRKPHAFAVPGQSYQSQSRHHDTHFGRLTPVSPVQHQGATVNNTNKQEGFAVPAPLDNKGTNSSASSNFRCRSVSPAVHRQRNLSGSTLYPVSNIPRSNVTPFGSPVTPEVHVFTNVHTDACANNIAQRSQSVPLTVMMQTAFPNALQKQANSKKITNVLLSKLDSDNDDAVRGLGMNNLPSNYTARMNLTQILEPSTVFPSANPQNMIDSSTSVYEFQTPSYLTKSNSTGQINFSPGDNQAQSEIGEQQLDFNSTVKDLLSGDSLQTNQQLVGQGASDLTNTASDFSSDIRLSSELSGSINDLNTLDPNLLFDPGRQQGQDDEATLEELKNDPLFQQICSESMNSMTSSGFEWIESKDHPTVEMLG
UniProt O95067, whole entry, looked up: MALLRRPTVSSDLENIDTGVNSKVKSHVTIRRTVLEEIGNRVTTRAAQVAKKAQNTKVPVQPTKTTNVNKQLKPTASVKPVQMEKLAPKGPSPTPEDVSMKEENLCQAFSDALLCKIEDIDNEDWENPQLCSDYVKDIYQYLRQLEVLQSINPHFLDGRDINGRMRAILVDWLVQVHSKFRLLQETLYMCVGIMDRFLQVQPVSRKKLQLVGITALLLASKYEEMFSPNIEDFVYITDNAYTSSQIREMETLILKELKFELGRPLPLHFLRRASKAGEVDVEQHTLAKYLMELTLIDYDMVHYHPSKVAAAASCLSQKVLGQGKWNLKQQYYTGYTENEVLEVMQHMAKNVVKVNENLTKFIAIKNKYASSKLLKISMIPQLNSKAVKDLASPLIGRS
UniProt O75821, whole entry: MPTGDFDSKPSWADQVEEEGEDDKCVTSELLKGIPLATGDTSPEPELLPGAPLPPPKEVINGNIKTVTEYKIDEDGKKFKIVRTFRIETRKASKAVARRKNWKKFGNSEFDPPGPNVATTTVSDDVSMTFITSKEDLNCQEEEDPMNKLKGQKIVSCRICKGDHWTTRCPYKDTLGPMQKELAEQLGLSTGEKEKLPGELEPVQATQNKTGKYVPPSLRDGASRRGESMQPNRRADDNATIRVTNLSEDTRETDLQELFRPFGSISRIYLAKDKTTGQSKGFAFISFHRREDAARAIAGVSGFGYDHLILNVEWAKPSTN
UniProt Q15287: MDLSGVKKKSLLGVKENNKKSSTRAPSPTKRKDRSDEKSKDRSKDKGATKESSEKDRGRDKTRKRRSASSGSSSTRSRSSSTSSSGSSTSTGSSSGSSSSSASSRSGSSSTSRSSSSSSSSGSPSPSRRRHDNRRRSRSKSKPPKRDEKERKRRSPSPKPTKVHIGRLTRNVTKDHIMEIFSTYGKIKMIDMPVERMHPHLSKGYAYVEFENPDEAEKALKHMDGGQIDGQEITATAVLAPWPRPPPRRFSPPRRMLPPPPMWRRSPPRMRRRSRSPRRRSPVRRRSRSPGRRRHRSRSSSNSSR
UniProt P28676: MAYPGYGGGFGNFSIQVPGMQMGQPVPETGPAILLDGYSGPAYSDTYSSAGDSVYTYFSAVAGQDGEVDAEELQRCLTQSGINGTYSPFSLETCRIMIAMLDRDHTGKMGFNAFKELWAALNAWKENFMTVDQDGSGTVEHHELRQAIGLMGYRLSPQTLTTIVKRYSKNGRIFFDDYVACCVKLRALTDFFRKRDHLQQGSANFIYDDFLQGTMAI
UniProt Q8IWX8: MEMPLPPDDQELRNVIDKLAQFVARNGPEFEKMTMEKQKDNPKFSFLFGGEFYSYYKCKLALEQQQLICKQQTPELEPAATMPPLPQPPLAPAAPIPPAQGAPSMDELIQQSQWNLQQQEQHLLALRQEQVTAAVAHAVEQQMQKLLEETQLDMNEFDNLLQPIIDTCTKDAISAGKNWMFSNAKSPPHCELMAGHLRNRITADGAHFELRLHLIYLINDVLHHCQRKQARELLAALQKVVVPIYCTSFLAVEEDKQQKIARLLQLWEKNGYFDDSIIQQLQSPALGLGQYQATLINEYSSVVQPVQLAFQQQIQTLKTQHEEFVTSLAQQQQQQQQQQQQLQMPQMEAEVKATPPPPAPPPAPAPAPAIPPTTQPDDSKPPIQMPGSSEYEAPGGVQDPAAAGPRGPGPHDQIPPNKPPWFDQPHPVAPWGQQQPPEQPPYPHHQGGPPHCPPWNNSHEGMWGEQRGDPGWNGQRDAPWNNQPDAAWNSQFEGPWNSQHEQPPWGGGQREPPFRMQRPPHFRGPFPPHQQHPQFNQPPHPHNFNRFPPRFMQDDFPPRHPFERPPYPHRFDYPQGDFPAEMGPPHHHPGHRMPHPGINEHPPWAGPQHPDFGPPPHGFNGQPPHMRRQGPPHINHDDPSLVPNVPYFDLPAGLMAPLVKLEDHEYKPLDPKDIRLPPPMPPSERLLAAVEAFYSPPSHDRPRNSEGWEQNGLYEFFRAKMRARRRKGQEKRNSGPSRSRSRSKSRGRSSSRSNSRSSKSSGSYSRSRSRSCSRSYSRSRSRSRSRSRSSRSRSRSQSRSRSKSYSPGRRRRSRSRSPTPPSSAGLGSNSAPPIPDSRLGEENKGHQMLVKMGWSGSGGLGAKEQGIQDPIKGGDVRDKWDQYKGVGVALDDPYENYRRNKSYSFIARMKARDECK
UniProt Q9NX61: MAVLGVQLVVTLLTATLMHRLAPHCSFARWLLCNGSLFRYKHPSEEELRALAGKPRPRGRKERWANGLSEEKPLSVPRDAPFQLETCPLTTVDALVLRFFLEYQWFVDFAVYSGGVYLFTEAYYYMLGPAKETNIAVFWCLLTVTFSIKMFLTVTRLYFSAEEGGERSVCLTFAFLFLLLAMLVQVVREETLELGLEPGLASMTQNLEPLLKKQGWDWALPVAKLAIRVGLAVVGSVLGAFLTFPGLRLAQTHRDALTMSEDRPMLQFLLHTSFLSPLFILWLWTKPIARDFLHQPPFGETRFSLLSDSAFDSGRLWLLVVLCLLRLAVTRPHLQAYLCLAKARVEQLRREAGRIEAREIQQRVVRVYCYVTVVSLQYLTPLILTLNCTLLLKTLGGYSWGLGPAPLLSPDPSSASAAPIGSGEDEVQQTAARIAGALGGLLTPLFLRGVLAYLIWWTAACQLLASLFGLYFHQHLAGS
UniProt P49321, whole entry: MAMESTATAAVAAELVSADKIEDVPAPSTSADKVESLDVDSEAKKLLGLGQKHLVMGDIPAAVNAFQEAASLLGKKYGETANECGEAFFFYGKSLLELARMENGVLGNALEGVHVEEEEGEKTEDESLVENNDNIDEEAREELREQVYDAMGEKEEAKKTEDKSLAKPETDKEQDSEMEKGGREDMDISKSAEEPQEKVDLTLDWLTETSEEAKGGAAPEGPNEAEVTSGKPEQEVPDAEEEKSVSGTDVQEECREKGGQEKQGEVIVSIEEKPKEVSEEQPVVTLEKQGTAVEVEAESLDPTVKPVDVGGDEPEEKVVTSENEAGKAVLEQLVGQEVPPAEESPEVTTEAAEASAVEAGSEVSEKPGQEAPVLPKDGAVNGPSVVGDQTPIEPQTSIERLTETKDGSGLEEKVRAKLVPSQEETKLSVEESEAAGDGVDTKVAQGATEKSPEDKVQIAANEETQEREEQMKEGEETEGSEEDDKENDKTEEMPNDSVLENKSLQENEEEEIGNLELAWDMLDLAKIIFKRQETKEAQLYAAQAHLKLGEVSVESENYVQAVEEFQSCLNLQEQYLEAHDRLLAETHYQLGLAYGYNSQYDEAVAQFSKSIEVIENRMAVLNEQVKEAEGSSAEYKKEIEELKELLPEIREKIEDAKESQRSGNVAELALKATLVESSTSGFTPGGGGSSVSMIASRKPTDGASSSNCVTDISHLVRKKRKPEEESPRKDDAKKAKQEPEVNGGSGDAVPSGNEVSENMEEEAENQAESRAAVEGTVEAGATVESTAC
UniProt P48730: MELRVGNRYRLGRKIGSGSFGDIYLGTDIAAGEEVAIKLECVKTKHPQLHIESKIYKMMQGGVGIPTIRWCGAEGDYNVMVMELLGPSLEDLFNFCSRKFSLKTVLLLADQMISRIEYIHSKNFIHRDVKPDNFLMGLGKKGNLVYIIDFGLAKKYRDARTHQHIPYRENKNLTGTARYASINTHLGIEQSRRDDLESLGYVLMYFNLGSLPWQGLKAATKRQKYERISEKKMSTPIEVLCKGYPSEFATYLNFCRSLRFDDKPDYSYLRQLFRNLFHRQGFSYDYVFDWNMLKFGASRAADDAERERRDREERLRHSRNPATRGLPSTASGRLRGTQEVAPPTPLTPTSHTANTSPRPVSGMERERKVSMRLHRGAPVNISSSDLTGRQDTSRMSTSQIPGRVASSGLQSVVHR
UniProt O60499: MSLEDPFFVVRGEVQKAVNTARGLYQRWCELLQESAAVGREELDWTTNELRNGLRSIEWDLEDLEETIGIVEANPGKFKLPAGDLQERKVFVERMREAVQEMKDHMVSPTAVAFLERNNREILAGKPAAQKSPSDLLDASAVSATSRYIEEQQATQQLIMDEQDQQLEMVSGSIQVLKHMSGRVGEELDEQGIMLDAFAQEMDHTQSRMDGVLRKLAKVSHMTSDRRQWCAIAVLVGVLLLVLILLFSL
UniProt Q6PK04: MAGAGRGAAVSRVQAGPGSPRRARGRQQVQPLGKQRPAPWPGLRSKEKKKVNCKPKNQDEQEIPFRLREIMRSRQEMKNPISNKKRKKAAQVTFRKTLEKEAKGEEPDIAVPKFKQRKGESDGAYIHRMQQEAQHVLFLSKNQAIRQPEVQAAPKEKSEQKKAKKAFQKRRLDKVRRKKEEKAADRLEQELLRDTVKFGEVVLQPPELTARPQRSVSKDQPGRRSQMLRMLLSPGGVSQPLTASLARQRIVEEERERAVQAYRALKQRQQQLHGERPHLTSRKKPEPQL
UniProt O14641: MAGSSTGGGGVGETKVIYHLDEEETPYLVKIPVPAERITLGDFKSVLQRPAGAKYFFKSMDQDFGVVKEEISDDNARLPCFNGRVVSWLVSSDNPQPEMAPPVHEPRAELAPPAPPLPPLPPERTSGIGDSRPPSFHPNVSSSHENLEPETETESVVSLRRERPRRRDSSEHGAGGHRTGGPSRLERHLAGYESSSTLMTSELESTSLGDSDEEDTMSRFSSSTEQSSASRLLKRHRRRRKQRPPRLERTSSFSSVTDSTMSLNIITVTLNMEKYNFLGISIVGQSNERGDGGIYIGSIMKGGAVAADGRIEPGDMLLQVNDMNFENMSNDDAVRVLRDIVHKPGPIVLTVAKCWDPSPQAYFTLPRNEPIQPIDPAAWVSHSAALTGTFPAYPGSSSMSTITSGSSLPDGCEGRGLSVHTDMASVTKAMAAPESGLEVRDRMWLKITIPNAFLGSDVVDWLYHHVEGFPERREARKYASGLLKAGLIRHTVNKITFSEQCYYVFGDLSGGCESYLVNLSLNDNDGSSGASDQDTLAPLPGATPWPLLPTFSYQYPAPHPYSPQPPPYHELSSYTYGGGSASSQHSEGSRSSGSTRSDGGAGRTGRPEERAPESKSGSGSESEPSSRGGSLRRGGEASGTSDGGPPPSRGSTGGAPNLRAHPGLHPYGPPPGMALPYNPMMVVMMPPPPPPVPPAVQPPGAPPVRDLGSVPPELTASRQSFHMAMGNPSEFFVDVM

Compound: Nc1ncnc2c1ncn2[C@@H]1O[C@H](COP(=O)(O)OP(=O)(O)OP(=O)(O)O)[C@@H](O)[C@H]1O [adenosine triphosphate]
Assay: NP40-soluble protein abundance relative to vehicle (solubility fold change) (ratio); higher = more soluble protein in presence of ATP
Outline: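 Data come from three independent experiments in which Dounce-homogenised Jurkat crude lysate was treated at eight concentrations from 0.1 to 10 mM. Treatment ran 10 min at room temperature and then 3 min at 37 °C, after which 0.8% NP40 and benzonase were added for 60 min at 4 °C before ultracentrifugation. The supernatant underwent TMT labelling and LC-MS/MS, and vsn-normalised intensities were expressed as fold change against the detergent-processed vehicle in each replicate.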

Target | NP40-soluble protein abundance (concentration: 1mM) | NP40-soluble protein abundance (concentration: 2mM) | NP40-soluble protein abundance (concentration: 4mM) | NP40-soluble protein abundance (concentration: 6mM) | NP40-soluble protein abundance (concentration: 8mM) | NP40-soluble protein abundance (concentration: 10mM)
K4DI93 and related entries (UniProt Q13620) | 0.994 ± 0.075 | 0.974 ± 0.058 | 0.94 ± 0.049 | 0.905 ± 0.079 | 0.953 ± 0.017 | 0.945 ± 0.043
H0YEM9 (UniProt Q8NCP5) | 1.11 ± 0.091 | 1.204 ± 0.0018 | 1.2 ± 0.095 | 1.25 ± 0.033 | 1.19 ± 0.036 | 1.32 ± 0.025
H7BXF4 and related entries (UniProt Q9NXE4) | 1.15 ± 0.24 | 1.07 ± 0.19 | 1.1 ± 0.17 | 1.04 ± 0.2 | 1.15 ± 0.14 | 1.14 ± 0.14
H7C2Q8 and related entries (UniProt Q99848) | 1.23 ± 0.13 | 1.24 ± 0.15 | 1.22 ± 0.17 | 1.18 ± 0.16 | 1.16 ± 0.14 | 1.19 ± 0.24
I3L2C7 and related entries (UniProt P57678) | 1.06 ± 0.07 | 0.984 ± 0.032 | 0.93 ± 0.058 | 0.854 ± 0.031 | 1.05 ± 0.1 | 1.01 ± 0.12
H0YLX2 and related entries (UniProt Q2KHR2) | 0.988 ± 0.051 | 0.985 ± 0.024 | 0.98 ± 0.072 | 1 ± 0.044 | 0.957 ± 0.033 | 0.9555 ± 0.0038
M0QWZ7 and related entries (UniProt Q9NP81) | 0.976 ± 0.055 | 0.995 ± 0.05 | 0.976 ± 0.076 | 0.991 ± 0.059 | 0.992 ± 0.058 | 0.968 ± 0.043
H1UBN3 and related entries (UniProt O95067+H1UBN3) | 0.974 ± 0.059 | 1.01 ± 0.11 | 0.986 ± 0.12 | 1.04 ± 0.035 | 1.09 ± 0.014 | 1.09 ± 0.032
K7EL60 and related entries (UniProt O75821) | 0.977 ± 0.046 | 1.01 ± 0.054 | 1.06 ± 0.061 | 1.19 ± 0.078 | 1.26 ± 0.049 | 1.39 ± 0.066
J3QLS3 and related entries (UniProt Q9Y2R9) | 0.985 ± 0.1 | 0.888 ± 0.071 | 0.931 ± 0.12 | 0.92 ± 0.18 | 0.952 ± 0.13 | 0.816 ± 0.12
H3BMM9 and related entries (UniProt Q15287) | 1.4 ± 0.16 | 1.3 ± 0.19 | 1.23 ± 0.19 | 1.19 ± 0.26 | 0.969 ± 0.18 | 1.09 ± 0.19
H0YLM8 and related entries (UniProt Q8TDJ6) | 0.965 ± 0.069 | 0.938 ± 0.061 | 0.97 ± 0.031 | 0.933 ± 0.091 | 0.993 ± 0.049 | 1.01 ± 0.13
H7BXD5 and related entries (UniProt P28676) | 0.917 ± 0.06 | 0.968 ± 0.056 | 0.944 ± 0.03 | 0.835 ± 0.065 | 0.92 ± 0.042 | 0.942 ± 0.029
UniProt H7C1Q1 | 1.03 ± 0.014 | 1.026 ± 0.006 | 1.06 ± 0.018 | 1.01 ± 0.13 | 0.943 ± 0.057 | 1.07 ± 0.032
H7C285 and related entries (UniProt O95858) | 1.05 ± 0.062 | 1.04 ± 0.052 | 1.06 ± 0.092 | 0.981 ± 0.028 | 1.06 ± 0.056 | 1.03 ± 0.055
J3QK89 and related entries (UniProt Q8IWX8) | 1.1 ± 0.084 | 1.13 ± 0.081 | 1.16 ± 0.075 | 1.28 ± 0.17 | 1.24 ± 0.049 | 1.26 ± 0.077
K7ELC7 and related entries (UniProt P61353) | 0.876 ± 0.026 | 0.849 ± 0.052 | 0.807 ± 0.039 | 0.824 ± 0.053 | 0.666 ± 0.037 | 0.842 ± 0.048
H3BPE7 and related entries (UniProt P35637) | 1.01 ± 0.13 | 1.11 ± 0.076 | 1.1 ± 0.11 | 1.23 ± 0.15 | 1.24 ± 0.066 | 1.18 ± 0.096
H7BXF5 and related entries (UniProt Q9H0E3) | 1.01 ± 0.044 | 1.02 ± 0.02 | 1.01 ± 0.025 | 1.04 ± 0.078 | 1.02 ± 0.019 | 1.05 ± 0.034
K7EPA3 and related entries (UniProt Q9NX61) | 0.896 ± 0.11 | 0.929 ± 0.079 | 0.906 ± 0.096 | 0.912 ± 0.14 | 0.959 ± 0.019 | 0.937 ± 0.063
H3BLT9 and related entries (UniProt Q7RTR2) | 1.11 ± 0.035 | 1.1 ± 0.063 | 1.09 ± 0.031 | 1.06 ± 0.1 | 1.07 ± 0.023 | 1.14 ± 0.087
H0YDS9 and related entries (UniProt P49321) | 0.918 ± 0.082 | 0.904 ± 0.047 | 0.873 ± 0.04 | 0.946 ± 0.053 | 0.8728 ± 0.0076 | 0.844 ± 0.049
H7BYT1 and related entries (UniProt P48730) | 1.03 ± 0.071 | 1.01 ± 0.18 | 1 ± 0.21 | 1.07 ± 0.23 | 0.961 ± 0.25 | 0.997 ± 0.25
J3KNF5 and related entries (UniProt O15078) | 0.986 ± 0.02 | 0.934 ± 0.031 | 0.997 ± 0.053 | 1 ± 0.027 | 1.04 ± 0.046 | 0.993 ± 0.067
K7EIY4 and related entries (UniProt O60499) | 0.931 ± 0.04 | 0.9751 ± 0.0073 | 0.9979 ± 0.008 | 1.06 ± 0.089 | 0.959 ± 0.024 | 0.916 ± 0.056
I3L0U5 and related entries (UniProt Q6PK04) | 0.887 ± 0.16 | 0.869 ± 0.13 | 0.93 ± 0.073 | 1 ± 0.093 | 1.03 ± 0.071 | 1.06 ± 0.11
K7EKG9 and related entries (UniProt Q14CW9) | 0.969 ± 0.096 | 1.08 ± 0.052 | 1.07 ± 0.15 | 1.14 ± 0.082 | 1.07 ± 0.047 | 1.16 ± 0.17
K7ELQ9 and related entries (UniProt Q6UW68) | 1.04 ± 0.086 | 1.08 ± 0.075 | 1.04 ± 0.073 | 1.03 ± 0.11 | 1.09 ± 0.045 | 1.01 ± 0.045
H3BV23 and related entries (UniProt Q96S82) | 0.925 ± 0.065 | 0.927 ± 0.068 | 0.92 ± 0.077 | 0.93 ± 0.092 | 0.889 ± 0.015 | 0.843 ± 0.087
I3L2N2 and related entries (UniProt O14641) | 0.966 ± 0.059 | 0.973 ± 0.043 | 0.969 ± 0.04 | 1.01 ± 0.06 | 0.934 ± 0.031 | 0.967 ± 0.029

No new results follow: an excerpt of the list.
Target | NP40-soluble protein abundance (concentration: 1mM) | NP40-soluble protein abundance (concentration: 2mM) | NP40-soluble protein abundance (concentration: 4mM) | NP40-soluble protein abundance (concentration: 6mM) | NP40-soluble protein abundance (concentration: 8mM) | NP40-soluble protein abundance (concentration: 10mM)
J3QLS3 and related entries (UniProt Q9Y2R9) | 0.985 ± 0.1 | 0.888 ± 0.071 | 0.931 ± 0.12 | 0.92 ± 0.18 | 0.952 ± 0.13 | 0.816 ± 0.12
H3BMM9 and related entries (UniProt Q15287) | 1.4 ± 0.16 | 1.3 ± 0.19 | 1.23 ± 0.19 | 1.19 ± 0.26 | 0.969 ± 0.18 | 1.09 ± 0.19
